From US7855309B2, “Pesticide benzyloxy- and phenetyl-substituted phenyl-amidine derivatives” (Bayer CropScience AG, priority 2005, dated 2010)
Some of these results come from one statement about several compounds together.

Columns and labels:
Podosphaera leucotricha = assay: In vivo protective test on Podosphaera leucotricha (apples); settings: 100 ppm of active ingredient, evaluated 10 days after inoculation
[1] = tested on: Puccinia recondita f. Sp. tritici; assay: In vivo preventive test on Puccinia recondita f. sp. tritici (wheat brown rust); settings: 1000 ppm of active ingredient, evaluated 10 days after inoculation
[2] = tested on: Erysiphe graminis f.sp. hordei; assay: In vivo preventive test on Erysiphe graminis (powdery mildew on barley); settings: 1000 ppm of active ingredient, evaluated 7 days after inoculation
Alternaria solani = assay: In vivo protective test on Alternaria solani (leaf spot of tomato); settings: 500 ppm of active ingredient, evaluated 7 days after inoculation
Sphaerotheca fuliginea = assay: In vivo protective test on Sphaerotheca fuliginea (cucumbers); settings: 100 ppm of active ingredient, evaluated 7 days after inoculation
Uromyces appendiculatus = assay: In vivo protective test on Uromyces appendiculatus (beans); settings: 10 ppm of active ingredient, evaluated 10 days after inoculation

Measured: efficacy

CCN(C)C=Nc1cc(C)c(OCc2ccc(C(F)(F)F)cc2)cc1C [Compound 14]
≥ 70%: Podosphaera leucotricha | [1] | [2] | Alternaria solani | Sphaerotheca fuliginea

CCN(C)C=Nc1cc(C)c(OCc2ccc(C)cc2)cc1C [Compound 32]
≥ 70%: Podosphaera leucotricha | [1] | [2] | Alternaria solani | Sphaerotheca fuliginea

CCN(C)C=Nc1cc(C)c(OCc2ccc(Cl)cc2C(F)(F)F)cc1C [Compound 18]
≥ 70%: Podosphaera leucotricha | [1] | [2] | Alternaria solani | Sphaerotheca fuliginea

CCN(C)C=Nc1cc(C)c(OCc2ccc(OC(F)(F)F)cc2)cc1C [Compound 23]
≥ 70%: Podosphaera leucotricha | [1] | [2] | Alternaria solani | Sphaerotheca fuliginea

Cc1cc(OC(C)c2ccc(Cl)cc2)c(C)cc1N=CN1CCCCC1 (racemic) [Compound 132]
≥ 70%: Uromyces appendiculatus

CCN(C)C=Nc1cc(C)c(OCc2ccc(C(C)(C)C)cc2)cc1C [Compound 8]
≥ 70%: Podosphaera leucotricha | [1] | [2] | Alternaria solani | Sphaerotheca fuliginea

Cc1cc(OCc2ccc(Cl)c(C(F)(F)F)c2)c(C)cc1N=CN1CCCCC1 [Compound 129]
≥ 70%: Uromyces appendiculatus
